Source: the supplement of paper PMC12067093, “Discovery and optimisation of a covalent ligand for TRIM25 and its application to targeted protein ubiquitination” (Chemical Science, 2025)
The other results are listed elsewhere or left out.

Amino acid sequences for entries named in this document (tags omitted). A change or cut given only in a name is not applied to a line headed by its entry.
UniProt Q96T23: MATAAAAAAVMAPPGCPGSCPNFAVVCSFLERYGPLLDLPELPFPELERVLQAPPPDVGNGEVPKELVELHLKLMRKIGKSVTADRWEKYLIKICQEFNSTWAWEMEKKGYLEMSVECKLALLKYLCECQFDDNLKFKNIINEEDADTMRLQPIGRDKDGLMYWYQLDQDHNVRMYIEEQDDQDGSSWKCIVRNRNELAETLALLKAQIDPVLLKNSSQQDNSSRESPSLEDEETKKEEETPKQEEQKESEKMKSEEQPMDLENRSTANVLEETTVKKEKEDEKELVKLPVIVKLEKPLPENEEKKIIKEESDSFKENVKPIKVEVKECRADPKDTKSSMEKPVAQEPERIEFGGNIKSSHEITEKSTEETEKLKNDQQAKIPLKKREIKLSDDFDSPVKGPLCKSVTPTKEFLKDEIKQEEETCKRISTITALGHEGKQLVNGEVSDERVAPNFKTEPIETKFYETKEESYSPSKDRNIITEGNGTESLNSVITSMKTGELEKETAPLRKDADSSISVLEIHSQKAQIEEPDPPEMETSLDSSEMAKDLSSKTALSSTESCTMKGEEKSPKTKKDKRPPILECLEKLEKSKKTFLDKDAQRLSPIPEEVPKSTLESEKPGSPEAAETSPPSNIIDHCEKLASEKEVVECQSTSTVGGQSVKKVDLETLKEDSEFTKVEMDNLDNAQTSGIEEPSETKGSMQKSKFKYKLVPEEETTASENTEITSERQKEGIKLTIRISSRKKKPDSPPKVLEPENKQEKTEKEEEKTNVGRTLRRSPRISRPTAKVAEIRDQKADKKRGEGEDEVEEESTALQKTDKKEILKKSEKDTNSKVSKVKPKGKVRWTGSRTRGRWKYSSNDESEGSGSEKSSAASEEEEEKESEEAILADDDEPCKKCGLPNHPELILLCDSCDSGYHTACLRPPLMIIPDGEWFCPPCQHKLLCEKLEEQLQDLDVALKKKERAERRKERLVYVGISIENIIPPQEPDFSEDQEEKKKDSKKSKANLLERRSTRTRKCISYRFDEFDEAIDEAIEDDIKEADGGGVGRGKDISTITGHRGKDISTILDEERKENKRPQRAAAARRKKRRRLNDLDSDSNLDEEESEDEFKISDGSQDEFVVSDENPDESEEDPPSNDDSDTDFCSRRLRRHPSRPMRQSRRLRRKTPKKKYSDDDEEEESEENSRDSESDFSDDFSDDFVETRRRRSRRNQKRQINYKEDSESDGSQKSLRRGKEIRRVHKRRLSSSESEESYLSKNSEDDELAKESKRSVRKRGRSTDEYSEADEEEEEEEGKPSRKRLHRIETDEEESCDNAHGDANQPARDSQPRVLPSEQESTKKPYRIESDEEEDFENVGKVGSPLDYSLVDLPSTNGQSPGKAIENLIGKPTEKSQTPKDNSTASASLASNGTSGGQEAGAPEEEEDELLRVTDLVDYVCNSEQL
UniProt Q14684: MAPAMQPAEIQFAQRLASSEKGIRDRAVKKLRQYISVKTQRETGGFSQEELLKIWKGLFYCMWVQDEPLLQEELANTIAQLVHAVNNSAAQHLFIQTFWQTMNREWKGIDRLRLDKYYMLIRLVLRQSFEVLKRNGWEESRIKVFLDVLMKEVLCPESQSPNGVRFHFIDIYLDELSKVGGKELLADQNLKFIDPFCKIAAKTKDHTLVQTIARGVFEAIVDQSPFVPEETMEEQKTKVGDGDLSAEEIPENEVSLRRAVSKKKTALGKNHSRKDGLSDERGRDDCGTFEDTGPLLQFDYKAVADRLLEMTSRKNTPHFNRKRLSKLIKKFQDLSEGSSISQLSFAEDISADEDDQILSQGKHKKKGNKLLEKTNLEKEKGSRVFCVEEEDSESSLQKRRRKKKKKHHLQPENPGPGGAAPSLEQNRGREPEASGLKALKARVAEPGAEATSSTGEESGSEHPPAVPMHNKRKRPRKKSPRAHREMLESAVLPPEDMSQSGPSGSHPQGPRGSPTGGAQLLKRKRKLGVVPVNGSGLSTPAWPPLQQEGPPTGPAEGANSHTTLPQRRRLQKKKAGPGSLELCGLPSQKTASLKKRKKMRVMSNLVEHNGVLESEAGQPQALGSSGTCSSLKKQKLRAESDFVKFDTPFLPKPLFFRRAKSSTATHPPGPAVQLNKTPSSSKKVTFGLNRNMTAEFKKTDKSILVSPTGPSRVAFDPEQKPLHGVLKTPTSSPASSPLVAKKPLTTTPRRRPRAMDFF
UniProt Q7LG56, whole entry, looked up: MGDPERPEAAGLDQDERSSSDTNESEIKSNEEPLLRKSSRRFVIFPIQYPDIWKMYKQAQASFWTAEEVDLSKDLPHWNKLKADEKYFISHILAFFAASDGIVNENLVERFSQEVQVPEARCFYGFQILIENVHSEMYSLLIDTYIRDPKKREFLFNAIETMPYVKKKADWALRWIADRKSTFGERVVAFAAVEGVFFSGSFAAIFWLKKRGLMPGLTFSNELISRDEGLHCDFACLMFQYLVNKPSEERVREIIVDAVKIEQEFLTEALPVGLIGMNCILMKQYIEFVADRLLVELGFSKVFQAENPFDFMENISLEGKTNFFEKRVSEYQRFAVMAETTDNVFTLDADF
UniProt Q9BY42: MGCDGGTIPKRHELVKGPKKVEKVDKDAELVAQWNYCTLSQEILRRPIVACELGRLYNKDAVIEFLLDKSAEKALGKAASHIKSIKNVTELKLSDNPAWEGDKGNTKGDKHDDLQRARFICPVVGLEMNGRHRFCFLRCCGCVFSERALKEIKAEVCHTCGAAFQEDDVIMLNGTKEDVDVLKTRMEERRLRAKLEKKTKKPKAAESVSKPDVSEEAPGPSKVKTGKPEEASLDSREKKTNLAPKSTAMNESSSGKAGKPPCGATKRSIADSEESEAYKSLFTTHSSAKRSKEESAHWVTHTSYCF
UniProt Q5VWQ0: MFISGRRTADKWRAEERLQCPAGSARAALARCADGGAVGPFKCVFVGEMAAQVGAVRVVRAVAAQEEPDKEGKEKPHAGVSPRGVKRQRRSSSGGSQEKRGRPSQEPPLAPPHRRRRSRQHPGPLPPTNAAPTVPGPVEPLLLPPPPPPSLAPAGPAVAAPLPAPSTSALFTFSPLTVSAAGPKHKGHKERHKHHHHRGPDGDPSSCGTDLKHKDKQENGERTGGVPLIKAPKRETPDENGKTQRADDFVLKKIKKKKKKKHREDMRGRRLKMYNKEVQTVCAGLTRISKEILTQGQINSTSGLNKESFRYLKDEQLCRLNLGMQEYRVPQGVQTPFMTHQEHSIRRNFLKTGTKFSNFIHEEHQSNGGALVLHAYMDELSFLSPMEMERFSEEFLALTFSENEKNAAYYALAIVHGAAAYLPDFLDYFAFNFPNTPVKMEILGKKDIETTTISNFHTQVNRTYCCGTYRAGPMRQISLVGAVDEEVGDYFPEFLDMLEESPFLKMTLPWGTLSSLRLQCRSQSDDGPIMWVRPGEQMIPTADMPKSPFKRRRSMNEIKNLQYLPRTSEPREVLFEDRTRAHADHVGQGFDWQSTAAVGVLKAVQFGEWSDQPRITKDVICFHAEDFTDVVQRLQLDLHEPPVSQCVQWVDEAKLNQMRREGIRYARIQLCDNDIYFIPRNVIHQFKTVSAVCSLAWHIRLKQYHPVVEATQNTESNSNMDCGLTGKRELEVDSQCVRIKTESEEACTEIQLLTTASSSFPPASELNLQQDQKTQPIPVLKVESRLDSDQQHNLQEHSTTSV
UniProt Q92766: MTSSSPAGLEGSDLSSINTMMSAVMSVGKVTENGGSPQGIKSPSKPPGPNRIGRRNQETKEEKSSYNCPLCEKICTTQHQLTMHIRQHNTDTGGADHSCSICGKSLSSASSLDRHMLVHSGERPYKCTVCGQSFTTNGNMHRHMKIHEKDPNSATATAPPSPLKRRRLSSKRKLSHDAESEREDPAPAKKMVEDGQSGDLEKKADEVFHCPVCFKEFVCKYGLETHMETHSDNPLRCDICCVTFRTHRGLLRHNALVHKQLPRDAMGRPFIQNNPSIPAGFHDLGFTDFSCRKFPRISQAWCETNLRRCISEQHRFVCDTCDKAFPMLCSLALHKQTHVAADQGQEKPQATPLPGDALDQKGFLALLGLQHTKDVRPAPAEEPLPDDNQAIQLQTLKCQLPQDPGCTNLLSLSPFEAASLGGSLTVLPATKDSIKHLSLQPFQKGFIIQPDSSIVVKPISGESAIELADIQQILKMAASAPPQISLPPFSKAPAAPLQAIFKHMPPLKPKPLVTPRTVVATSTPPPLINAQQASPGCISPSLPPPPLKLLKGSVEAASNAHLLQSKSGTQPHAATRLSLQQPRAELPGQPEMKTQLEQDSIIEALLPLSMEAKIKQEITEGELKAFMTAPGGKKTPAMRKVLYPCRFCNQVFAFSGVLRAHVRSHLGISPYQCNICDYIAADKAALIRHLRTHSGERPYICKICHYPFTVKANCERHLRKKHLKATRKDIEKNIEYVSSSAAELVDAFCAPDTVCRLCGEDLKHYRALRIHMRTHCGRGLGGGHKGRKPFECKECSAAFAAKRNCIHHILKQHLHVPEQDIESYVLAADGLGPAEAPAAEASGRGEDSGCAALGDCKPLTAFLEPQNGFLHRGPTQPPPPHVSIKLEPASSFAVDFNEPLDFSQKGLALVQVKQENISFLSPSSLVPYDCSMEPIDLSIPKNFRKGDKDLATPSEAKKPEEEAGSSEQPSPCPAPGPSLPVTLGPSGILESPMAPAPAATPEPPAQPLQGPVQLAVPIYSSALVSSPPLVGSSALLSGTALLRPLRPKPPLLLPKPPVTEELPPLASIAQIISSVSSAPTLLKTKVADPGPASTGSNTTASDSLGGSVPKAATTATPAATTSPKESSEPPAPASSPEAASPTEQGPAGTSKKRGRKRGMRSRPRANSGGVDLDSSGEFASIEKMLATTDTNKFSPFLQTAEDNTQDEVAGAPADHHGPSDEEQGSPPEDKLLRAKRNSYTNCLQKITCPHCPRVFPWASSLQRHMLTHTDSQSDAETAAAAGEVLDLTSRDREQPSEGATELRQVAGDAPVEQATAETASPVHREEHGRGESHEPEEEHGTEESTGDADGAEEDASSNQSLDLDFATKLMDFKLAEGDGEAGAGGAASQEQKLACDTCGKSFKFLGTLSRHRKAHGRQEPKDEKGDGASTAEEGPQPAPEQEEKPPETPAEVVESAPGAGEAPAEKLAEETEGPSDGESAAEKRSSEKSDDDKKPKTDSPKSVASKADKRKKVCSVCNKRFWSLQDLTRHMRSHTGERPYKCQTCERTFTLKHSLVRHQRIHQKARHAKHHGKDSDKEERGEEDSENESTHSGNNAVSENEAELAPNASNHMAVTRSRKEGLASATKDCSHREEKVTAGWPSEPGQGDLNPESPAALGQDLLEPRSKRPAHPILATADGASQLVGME
UniProt Q9Y3Z3: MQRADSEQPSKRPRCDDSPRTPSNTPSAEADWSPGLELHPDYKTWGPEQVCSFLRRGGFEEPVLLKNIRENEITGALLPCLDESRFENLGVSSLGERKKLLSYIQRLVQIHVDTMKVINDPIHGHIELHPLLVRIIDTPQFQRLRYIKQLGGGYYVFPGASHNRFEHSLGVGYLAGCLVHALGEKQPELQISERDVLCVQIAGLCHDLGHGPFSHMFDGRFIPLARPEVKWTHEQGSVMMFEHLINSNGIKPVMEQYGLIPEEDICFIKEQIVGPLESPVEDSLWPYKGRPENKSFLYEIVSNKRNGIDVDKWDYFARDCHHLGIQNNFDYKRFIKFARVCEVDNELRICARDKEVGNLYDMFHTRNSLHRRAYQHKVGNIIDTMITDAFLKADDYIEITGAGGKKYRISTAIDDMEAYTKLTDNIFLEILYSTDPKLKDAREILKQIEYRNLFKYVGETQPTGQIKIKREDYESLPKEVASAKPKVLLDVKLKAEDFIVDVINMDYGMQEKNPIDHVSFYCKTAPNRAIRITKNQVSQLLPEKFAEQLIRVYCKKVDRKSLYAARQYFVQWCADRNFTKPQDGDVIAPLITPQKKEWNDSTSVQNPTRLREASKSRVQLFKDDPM
UniProt Q5VZM2, whole entry, looked up: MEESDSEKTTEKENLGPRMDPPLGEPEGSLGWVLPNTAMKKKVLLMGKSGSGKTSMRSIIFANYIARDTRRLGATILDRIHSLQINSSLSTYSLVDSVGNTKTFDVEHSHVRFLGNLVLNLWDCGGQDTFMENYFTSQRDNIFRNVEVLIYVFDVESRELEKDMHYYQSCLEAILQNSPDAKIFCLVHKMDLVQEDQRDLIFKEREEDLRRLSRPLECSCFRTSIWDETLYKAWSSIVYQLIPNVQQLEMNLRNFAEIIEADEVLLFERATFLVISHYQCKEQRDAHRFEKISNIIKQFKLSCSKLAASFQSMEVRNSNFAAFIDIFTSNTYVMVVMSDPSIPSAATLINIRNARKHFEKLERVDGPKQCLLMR
UniProt P60903, whole entry: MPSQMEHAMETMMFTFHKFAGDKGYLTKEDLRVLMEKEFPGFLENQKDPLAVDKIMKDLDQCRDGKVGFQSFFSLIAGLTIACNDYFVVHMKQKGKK

Compound: Cc1cc(ccc1-c1ccccc1)C(=O)N1CCCN(CC1)C(=O)CCl [compound 10]
Assay: probe-labelled cysteine peptide fold change vs DMSO (competition) (log2 fold change); higher = less target engagement (more negative = stronger competition)
Settings: THP-1, incubation time: 4 h
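Also: competitive profiling in live THP-1 cells: cysteine peptides tagged with an iodoacetamide desthiobiotin (IA-DTB) probe, intensity after compound treatment relative to DMSO-treated cells.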

Row | Target | probe-labelled cysteine peptide fold change (10 µM) | probe-labelled cysteine peptide fold change (50 µM)
1 | RPS2_P15880_182_PHTVPCK (UniProt P15880) | -0.231 | 0.0272
2 | RTN4IP1_Q8WWV3_236_AWDAHVTAVCSQDASELVR (UniProt Q8WWV3) | -0.0863 | 0.0387
3 | RPS27A_P62979_126_ECPSDECGAGVFMASHFDR (UniProt P62979) | -0.0394 | -0.0668
4 | RSF1_Q96T23_1436_VTDLVDYVCNSEQL (UniProt Q96T23) | -0.287 | 0.039
5 | RRP1B_Q14684_583_AGPGSLELCGLPSQK (UniProt Q14684) | -0.0155 | -0.108
6 | RSL24D1_Q9UHA3_9_CYFCSGPIYPGHGMMFVR (UniProt Q9UHA3) | 0.00222 | 0.0233
7 | RUBCNL_Q9H714_437_DLVVAAQNFFCAGCGTPVEPK (UniProt Q9H714) | 0.191 | 0.168
8 | RRM2B_Q7LG56_236_DEGLHCDFACLMFQYLVNKPSEER (UniProt Q7LG56) | 0.31 | 0.261
9 | RPUSD3_Q6P087_345_TLQCLGLR (UniProt Q6P087) | -0.321 | -0.821
10 | RTFDC1_Q9BY42_37_DAELVAQWNYCTLSQEILR (UniProt Q9BY42) | 0.285 | 0.0626
11 | RPS2_P15880_222_KLLMMAGIDDCYTSAR (UniProt P15880) | -0.0843 | -1.02
12 | RXRB_P28702_191_GLHCPPPPGGPGAGK (UniProt P28702) | 0.0057 | -0.071
13 | RSBN1L_Q6PCB5_818_EELCPGNLSLVDTR (UniProt Q6PCB5) | -0.353 | 0.0577
14 | RPS6KB1_P23443_254_ESIHDGTVTHTFCGTIEYMAPEILMR (UniProt P23443) | 0.0255 | -0.0384
15 | RPS12_P25398_92_LGEWVGLCK (UniProt P25398) | 0.0151 | -0.186
16 | SAC3D1_A6NKF1_340_DLCQAHGLPLDGEER (UniProt A6NKF1) | 0.225 | 0.126
17 | RSBN1_Q5VWQ0_671_IQLCDNDIYFIPR (UniProt Q5VWQ0) | -0.0101 | 0.157
18 | RPS17_P08708_35_VCEEIAIIPSK (UniProt P08708) | -0.306 | 0.0537
19 | RSL1D1_O76021_211_SGSCSAIR (UniProt O76021) | -0.0256 | 0.0195
20 | RTFDC1_Q9BY42_51_RPIVACELGR (UniProt Q9BY42) | 0.112 | 0.0292
21 | SAMD9_Q5K651_975+979_TEVIECGNYCGVR (UniProt Q5K651) | 0.381 | 0.469
22 | RRP1B_Q14684_155_EVLCPESQSPNGVR (UniProt Q14684) | -0.593 | -0.566

Row | Target | probe-labelled cysteine peptide fold change (10 µM) | probe-labelled cysteine peptide fold change (50 µM)
23 | SAFB2_Q14151_464_CISHLHR (UniProt Q14151) | 0.0228 | -0.218
24 | RREB1_Q92766-2_1302_HGVTTCSLR (UniProt Q92766) | -0.0594 | -0.557
25 | RPS21_P63220_17_CSASNR (UniProt P63220) | -0.0796 | -0.11
26 | SAMHD1_Q9Y3Z3_80_NIRENEITGALLPCLDESR (UniProt Q9Y3Z3) | -0.084 | 0.0813
27 | RPS8_P62241_182_LLACIASRPGQCGR (UniProt P62241) | -0.207 | -0.296
28 | RPS15A_P62244_30_QVLIRPCSK (UniProt P62244) | -0.311 | 0.176
29 | RPS2_P15880_222_LLMMAGIDDCYTSAR (UniProt P15880) | 0.0322 | -0.132
30 | SAMHD1_Q9Y3Z3_80_ENEITGALLPCLDESR (UniProt Q9Y3Z3) | -0.0976 | 0.178
31 | RRAGB_Q5VZM2_185_IFCLVHK (UniProt Q5VZM2) | 0.224 | 0.0979
32 | SAMHD1_Q9Y3Z3_341_VCEVDNELR (UniProt Q9Y3Z3) | 0.395 | 0.15
33 | RUFY1_Q96T51_351_ICSLQEEQQQLR (UniProt Q96T51) | 0.179 | 0.107
34 | S100A10_P60903_62_DLDQCR (UniProt P60903) | -0.152 | -0.0785
35 | RUVBL2_Q9Y230_227_FVQCPDGELQK (UniProt Q9Y230) | -0.053 | 0.0778
36 | SAMD9L_Q8IVG5_1085_RFPQNAFICQALAR (UniProt Q8IVG5) | 0.00751 | 0.157
37 | RPUSD2_Q8IZ73_321_VEGEFPTEEVTCK (UniProt Q8IZ73) | 0.108 | 0.12
38 | SACM1L_Q9NTJ5_199_FALPVLHGFITMHSCSINGK (UniProt Q9NTJ5) | -0.213 | 0.458
39 | RPS17_P08708_35_RVCEEIAIIPSKK (UniProt P08708) | -0.52 | 0.294
40 | SAE1_Q9UBE0_214_KVVFCPVK (UniProt Q9UBE0) | -0.181 | -0.147
41 | RTF1_Q92541_373_WCHMPFFAK (UniProt Q92541) | -0.117 | 0.00404
42 | RTRAF_Q9Y224_19_LTALDYHNPAGFNCK (UniProt Q9Y224) | 0.338 | 0.446
43 | RPS3_P23396_119_ACYGVLR (UniProt P23396) | -0.115 | 0.0839
